Results published in US6113896A, “Pharmaceutical compositions containing ecotin and homologs thereof” (priority 1994, dated 2000).
“Also recorded” adds a separate entry of the source.

System: FXa
Assay: Cleavage of ecotin by FXa
Parameters: species or system human

Ecotin: E. coli periplasmic protein having the 142 amino acid residue sequence reported by McGrath et al.; recombinant, P1 Met84
cleavage of ecotin by FXa (pH 4.0, between Met84 and Met85): slow cleavage; also recorded: cleaves ecotin slowly
cleavage of ecotin by FXa (pH 7.5): much less than that occurring at pH 4.0; also recorded: very little cleavage
